Several values for one entry are separate records, joined by “and”; a condition that tells them apart may be missing. Equal values may be shown once. Some of the results follow. Repeats in this data set agree poorly, so a single value says little.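 HEK293T cells were given each compound shortly before transfection with a reporter in which red mCherry is followed by the SARS-CoV-2 frameshift element and then GFP in the −1 frame, so GFP appears only after frameshifting.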

Our source for the percent viability values is the supplement of paper PMC8256030.

The test system of this assay is HEK293T. As to the kind of experiment: percent viability (nuclei count) relative to control; higher = more viable cells. As to conditions: 10 µM; 24 h.
For `Oc1ccc(O)cc1`, the percent viability came out at 127%.

Regarding `CC(C)c1c(C(=O)Nc2ccccc2)c(-c2ccccc2)c(-c2ccc(F)cc2)n1CC[C@@H](O)C[C@@H](O)CC(=O)O`, the percent viability came out at 254%.

Take `CCCCNC(=O)NS(=O)(=O)c1ccc(C)cc1` [Tolbutamide]: the percent viability was 270%.

With `CC(C)NC(=O)[C@H]1CCC[C@H]1Nc1nc(Nc2ccc(C(=O)N(C)C3CCN(C)CC3)cc2)ncc1Cl`, the percent viability is 176%.

In the case of `CCN(CC)C(=O)c1cccnc1` [nikethamide], the percent viability stood at 261%.

As for `CNC[C@H](O)[C@@H](O)[C@H](O)[C@H](O)CO` [Meglumine], the percent viability was found to be 130%.

For `Oc1c(Cl)cc(Cl)c2cccnc12`, the percent viability came to 271%.

For the molecule `CC(C)C(=O)OCC(=O)[C@@]12O[C@H](C3CCCCC3)O[C@@H]1C[C@H]1[C@@H]3CCC4=CC(=O)C=C[C@]4(C)[C@H]3[C@@H](O)C[C@@]12C` [Ciclesonide], the percent viability was 226%.

`CCN[C@H]1CN(CCCOC)S(=O)(=O)c2sc(S(N)(=O)=O)cc21` [brinzolamide]: the percent viability was 170% and 194%.

With `N=C(N)NC(=O)c1nc(Cl)c(N)nc1N` [Amiloride], the percent viability is 170%.

On to `Nc1nc(=O)c(Br)c(-c2ccccc2)[nH]1` [bropirimine], for which the percent viability is 239%.

Turning to `COc1ccc([C@@H]2Sc3ccccc3N(CCN(C)C)C(=O)[C@@H]2OC(C)=O)cc1` [diltiazem], the percent viability was 417% and 154%.

For the molecule `CCCN(CCc1cccs1)[C@H]1CCc2c(O)cccc2C1` [Neupro], the percent viability came out at 186%.

As for `C[C@H]1c2cccc(O)c2C(O)=C2C(=O)[C@]3(O)C(O)=C(C(N)=O)C(=O)[C@@H](N(C)C)[C@@H]3[C@@H](O)[C@@H]21` [doxycycline], the percent viability was 50.8%.
